Measurements published in the supplement of paper PMC12823440, “Inhibitors supercharge kinase turnover through native proteolytic circuits” (Nature, 2025).
Counter-ions that a name gives are not always drawn. The list shows a part of the results. Hit calls seldom repeat between salt and free forms of one compound.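 In K562 cells expressing nanoluciferase-fused kinases, luminescence was recorded at 4 h intervals between 2 and 18 h, normalized as percent of control with DMSO at 100% and a positive control at 0%. A significant (2 sigma) signal drop marks a time point as decreased. The authors' rule for a hit is not shown and takes in more than the number of time points.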

Sequences of proteins named here, by UniProt entry; tags and fusion partners are left off.
UniProt P50750, whole entry: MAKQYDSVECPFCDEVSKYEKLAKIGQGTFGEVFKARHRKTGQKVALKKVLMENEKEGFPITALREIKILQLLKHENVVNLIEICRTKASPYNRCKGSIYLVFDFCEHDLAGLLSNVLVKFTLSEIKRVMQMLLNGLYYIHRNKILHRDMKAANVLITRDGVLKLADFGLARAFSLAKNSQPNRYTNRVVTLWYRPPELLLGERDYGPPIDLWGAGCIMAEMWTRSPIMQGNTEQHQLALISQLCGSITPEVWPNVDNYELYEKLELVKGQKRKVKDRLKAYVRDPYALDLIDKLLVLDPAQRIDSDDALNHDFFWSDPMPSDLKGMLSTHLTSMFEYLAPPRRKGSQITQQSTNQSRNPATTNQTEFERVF

The compounds below were run against CDK9 (UniProt P50750) (assay: number of time points (of 4; 2 h point missing) at which kinase-Nluc abundance scored as decreased, DMSO-normalised (count); higher = more persistent destabilization). Conditions: 2.5 µM; K562; 2-18 h.
For `C=CC(=O)Nc1cc(Nc2nccc(-c3cn(C)c4ccccc34)n2)c(OC)cc1N(C)CCN(C)C` [Osimertinib mesylate], the “number of time points” value was 0.
In the case of `C=CC(=O)Nc1cc(Nc2nccc(-c3cn(C)c4ccccc34)n2)c(OC)cc1N(C)CCN(C)C` [Osimertinib (dimesylate)], the “number of time points” value is reported as 0.
For `CNC(=O)c1cc(Oc2ccc(NC(=O)Nc3ccc(Cl)c(C(F)(F)F)c3)c(F)c2)ccn1` [Regorafenib], the “number of time points” value was 0.
For `Cc1ccc(NC(=O)c2ccc(CN3CCN(C)CC3)cc2)cc1Nc1nc(-c2cccnc2)cs1` [Masitinib], the “number of time points” value was 0.
In the case of `Cc1cc(Nc2ncc(Cl)c(Nc3ccccc3S(=O)(=O)C(C)C)n2)c(OC(C)C)cc1C1CCNCC1` [Ceritinib dihydrochloride], the “number of time points” value is reported as 0.
In the case of `Nc1ncnc2c1c(-c1ccc(Oc3ccccc3)cc1)nn2[C@@H]1CCCNC1` [IBT6A (hydrochloride)], the “number of time points” value is reported as 0.
With `CN(C)C(=O)c1cc2cnc(Nc3ccc(N4CCNCC4)cn3)nc2n1C1CCCC1` [Ribociclib succinate hydrate] the “number of time points” value was 0.
With `CNC(=O)c1cc(Oc2ccc(NC(=O)Nc3ccc(Cl)c(C(F)(F)F)c3)c(F)c2)ccn1` [Regorafenib (monohydrate)] the “number of time points” value was 0.
With `COc1cc2c(Oc3ccc4[nH]c(C)cc4c3F)ncnc2cc1OCCCN1CCCC1` [Cediranib (maleate)] the “number of time points” value was 0.
With `Oc1cccc(-c2nc(N3CCOCC3)c3oc4ncccc4c3n2)c1` [PI-103 (Hydrochloride)] the “number of time points” value was 0.
`Cc1cccc(-c2[nH]c(CNc3ccccc3F)nc2-c2ccc3ncnn3c2)n1` [Vactosertib (Hydrochloride)] was tested, and the “number of time points” value was 0.
`CN1CCCN(C(=O)c2cccc(-c3ccc(/C=C4/C(=O)Nc5ccc(Cl)cc54)o3)c2)CC1` was tested, and the “number of time points” value was 0.

Same assay, conditions: 10 µM; K562; 2-18 h
For `O=C(c1nn(-c2ccc(CN3CCOCC3)cc2)c2c1CS(=O)(=O)c1c(F)cccc1-2)N1CCOCC1`, the “number of time points” value was 0.
For `C#Cc1cccc(Nc2ncnc3cc(OCCOC)c(OCCO)cc23)c1` [Desmethyl Erlotinib], the “number of time points” value was 0.
In the case of `C#Cc1cccc(Nc2ncnc3cc(OCCOC)c(OCCOC)cc23)c1` [Erlotinib], the “number of time points” value is reported as 0.
With `CC(C)Nc1cc(-c2c[nH]c(C(=O)N[C@H](CO)c3cccc(Cl)c3)c2)c(Cl)cn1` [Ulixertinib] the “number of time points” value was 0.
In the case of `O=C1Nc2ccccc2/C1=C/c1ccccn1` [(E/Z)-GSK-3β inhibitor 1], the “number of time points” value is reported as 0.
For `C[C@@H](N)c1ccc(C(=O)Nc2ccnc3[nH]ccc23)cc1`, the “number of time points” value was 0.
With `CC(=O)c1c(C)c2cnc(Nc3ccc(N4CCNCC4)cn3)nc2n(C2CCCC2)c1=O` [Palbociclib (isethionate)] the “number of time points” value was 0.
With `C#Cc1cccc(Nc2ncnc3cc(OCCOC)c(OCCOC)cc23)c1` [Erlotinib (Hydrochloride)] the “number of time points” value was 0.
`C/C=C1\C(=O)C[C@H]2[C@@H]3CCC4=CC(=O)CC[C@]4(C)[C@H]3CC[C@]12C` [Guggulsterone] was tested, and the “number of time points” value was 0.
For `Cc1cccc(/C=N/Nc2cc(N3CCOCC3)nc(OCCc3ccccn3)n2)c1` [Apilimod (mesylate)], the “number of time points” value was 0.
`COc1ncc(F)cc1CNc1ccc(Cc2c[nH]c3ncc(C)cc23)c(F)n1` [PLX5622 (hemifumarate)] was tested, and the “number of time points” value was 0.
With `COC(=O)[C@H](CC(C)C)NC(=O)c1ccc(NC[C@@H](N)CS)cc1-c1cccc2ccccc12` [GGTI298 (Trifluoroacetate)] the “number of time points” value was 0.
`O=C(O)c1ccc2c(c1)nc(Nc1cccc(Cl)c1)c1ccncc12` [Silmitasertib (sodium salt)] was tested, and the “number of time points” value was 0.
In the case of `O=C1Nc2ccccc2/C1=C/c1ccccn1` [GSK-3β inhibitor 1], the “number of time points” value is reported as 0.
In the case of `CC(C)(C)n1nc(-c2cccc3ccccc23)c2c(N)ncnc21` [1-Naphthyl PP1], the “number of time points” value is reported as 0.
With `Nc1cncc(-c2cn3ccnc3c(Nc3ccc(N4CCN(C5COC5)CC4)cc3)n2)n1` [Lanraplenib] the “number of time points” value was 0.
For `CC(=O)Nc1cccc(-n2c(=O)n(C3CC3)c(=O)c3c(Nc4ccc(I)cc4F)n(C)c(=O)c(C)c32)c1` [Trametinib], the “number of time points” value was 4.
In the case of `CC(=O)c1c(C)c2cnc(Nc3ccc(N4CCNCC4)cn3)nc2n(C2CCCC2)c1=O` [Palbociclib (monohydrochloride)], the “number of time points” value is reported as 0.
In the case of `CN(C)C(=N)NC(=N)N` [Metformin], the “number of time points” value is reported as 0.
In the case of `C#Cc1cccc(Nc2ncnc3cc(OCCOC)c(OCCO)cc23)c1` [Desmethyl Erlotinib (hydrochloride)], the “number of time points” value is reported as 0.
In the case of `CN(C)C(=O)c1cc2cnc(Nc3ccc(N4CCNCC4)cn3)nc2n1C1CCCC1` [Ribociclib], the “number of time points” value is reported as 0.
`CC(C)NC[C@@H](C(=O)N1CCN(c2ncnc3c2[C@H](C)C[C@H]3O)CC1)c1ccc(Cl)cc1` [Ipatasertib (dihydrochloride)] was tested, and the “number of time points” value was 0.
For `CCN(CC)CC(=O)Nc1c(C)cccc1C` [Lidocaine (hydrochloride)], the “number of time points” value was 0.
For `C[C@@H](N)[C@H]1CC[C@H](C(=O)Nc2ccncc2)CC1`, the “number of time points” value was 0.
